Results on one molecule are retold here after patent publication US20130108549A1.

The target of assay [1] is Aβ plaques / amyloid deposits in brain of transgenic mice over-expressing human APP751 with London and Swedish mutations (hAPP751SL) (human) (UniProt P05067). The assay can be described thus: in vivo intranasal administration to hAPP751SL transgenic mice, fluorescence microscopy of brain slices.
The target is the same in assay [2]. Description: fluorescence microscopy of brain slices of hAPP751SL transgenic mice incubated with the labeled probe, overlaid with anti-Aβ antibody / Thioflavin S staining.

Results are given in words; binding and its absence hold for the method and conditions named. Some entries that bind do so weakly or less than the wild type.

Turning to KLVFFAEDVGSNKGAIIGLM (pyrene label at each terminus) [Peptide probe specific for Aβ (SEQ ID NO:36) labeled at each terminus with pyrene], the binding result in assay [1] and in assay [2] was “binds” throughout.
